# The list shows a part of the results.
# Protein sequences, listed by entry. Tags and fused reporters are not part of them. Lines headed by an entry give the natural chain unless they say otherwise; changes in a name come on top.
# UniProt E9PAV3, whole entry, looked up: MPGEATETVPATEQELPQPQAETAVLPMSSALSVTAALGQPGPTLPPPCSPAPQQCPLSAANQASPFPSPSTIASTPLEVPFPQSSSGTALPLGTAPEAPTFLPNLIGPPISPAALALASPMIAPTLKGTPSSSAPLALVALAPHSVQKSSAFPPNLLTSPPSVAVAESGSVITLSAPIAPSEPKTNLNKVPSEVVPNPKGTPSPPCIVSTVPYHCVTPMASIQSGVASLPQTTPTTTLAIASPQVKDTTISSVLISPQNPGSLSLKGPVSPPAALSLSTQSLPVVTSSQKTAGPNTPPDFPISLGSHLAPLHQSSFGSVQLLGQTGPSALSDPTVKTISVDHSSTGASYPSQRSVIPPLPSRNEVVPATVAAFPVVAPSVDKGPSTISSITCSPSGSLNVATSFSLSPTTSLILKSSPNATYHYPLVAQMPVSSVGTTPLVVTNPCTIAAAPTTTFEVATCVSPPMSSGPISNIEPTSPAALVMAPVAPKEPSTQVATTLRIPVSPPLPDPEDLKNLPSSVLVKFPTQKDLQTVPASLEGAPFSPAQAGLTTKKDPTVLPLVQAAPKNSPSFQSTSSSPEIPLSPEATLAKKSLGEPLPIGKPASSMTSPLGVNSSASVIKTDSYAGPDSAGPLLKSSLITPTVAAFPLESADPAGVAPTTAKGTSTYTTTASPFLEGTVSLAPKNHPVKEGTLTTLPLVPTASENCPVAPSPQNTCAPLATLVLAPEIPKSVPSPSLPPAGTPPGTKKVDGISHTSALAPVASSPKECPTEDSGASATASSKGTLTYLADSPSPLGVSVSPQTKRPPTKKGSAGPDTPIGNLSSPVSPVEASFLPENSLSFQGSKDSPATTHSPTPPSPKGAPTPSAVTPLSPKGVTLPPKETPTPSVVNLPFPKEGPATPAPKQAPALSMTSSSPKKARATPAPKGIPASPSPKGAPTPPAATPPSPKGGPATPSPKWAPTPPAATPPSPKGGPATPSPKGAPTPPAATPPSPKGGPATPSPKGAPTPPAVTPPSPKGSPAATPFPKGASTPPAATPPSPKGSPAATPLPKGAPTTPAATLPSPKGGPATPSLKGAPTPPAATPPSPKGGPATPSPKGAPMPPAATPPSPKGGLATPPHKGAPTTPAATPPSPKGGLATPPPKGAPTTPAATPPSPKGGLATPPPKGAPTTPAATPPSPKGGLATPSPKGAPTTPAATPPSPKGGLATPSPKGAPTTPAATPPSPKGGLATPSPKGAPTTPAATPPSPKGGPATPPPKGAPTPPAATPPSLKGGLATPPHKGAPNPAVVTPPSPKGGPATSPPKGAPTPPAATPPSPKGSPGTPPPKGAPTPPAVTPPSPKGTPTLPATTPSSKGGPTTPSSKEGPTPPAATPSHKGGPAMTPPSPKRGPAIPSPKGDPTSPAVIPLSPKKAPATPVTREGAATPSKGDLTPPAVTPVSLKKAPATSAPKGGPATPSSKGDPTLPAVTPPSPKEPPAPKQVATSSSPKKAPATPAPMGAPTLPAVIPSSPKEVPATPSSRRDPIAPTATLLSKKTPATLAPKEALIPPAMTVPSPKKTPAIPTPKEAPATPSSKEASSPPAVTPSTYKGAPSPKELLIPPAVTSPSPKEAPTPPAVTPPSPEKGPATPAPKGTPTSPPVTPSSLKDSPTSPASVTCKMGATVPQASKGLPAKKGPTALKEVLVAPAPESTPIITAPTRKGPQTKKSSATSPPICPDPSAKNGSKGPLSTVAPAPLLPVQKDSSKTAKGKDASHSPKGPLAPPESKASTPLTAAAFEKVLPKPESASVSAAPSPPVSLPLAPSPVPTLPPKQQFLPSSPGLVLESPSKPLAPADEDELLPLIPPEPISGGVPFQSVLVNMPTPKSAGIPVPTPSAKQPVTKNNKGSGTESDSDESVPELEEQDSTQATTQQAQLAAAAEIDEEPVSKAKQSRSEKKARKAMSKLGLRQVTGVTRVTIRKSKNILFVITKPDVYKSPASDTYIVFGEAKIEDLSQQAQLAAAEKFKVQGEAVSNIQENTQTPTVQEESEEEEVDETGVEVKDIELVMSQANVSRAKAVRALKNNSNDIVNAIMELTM
# UniProt Q8NI08: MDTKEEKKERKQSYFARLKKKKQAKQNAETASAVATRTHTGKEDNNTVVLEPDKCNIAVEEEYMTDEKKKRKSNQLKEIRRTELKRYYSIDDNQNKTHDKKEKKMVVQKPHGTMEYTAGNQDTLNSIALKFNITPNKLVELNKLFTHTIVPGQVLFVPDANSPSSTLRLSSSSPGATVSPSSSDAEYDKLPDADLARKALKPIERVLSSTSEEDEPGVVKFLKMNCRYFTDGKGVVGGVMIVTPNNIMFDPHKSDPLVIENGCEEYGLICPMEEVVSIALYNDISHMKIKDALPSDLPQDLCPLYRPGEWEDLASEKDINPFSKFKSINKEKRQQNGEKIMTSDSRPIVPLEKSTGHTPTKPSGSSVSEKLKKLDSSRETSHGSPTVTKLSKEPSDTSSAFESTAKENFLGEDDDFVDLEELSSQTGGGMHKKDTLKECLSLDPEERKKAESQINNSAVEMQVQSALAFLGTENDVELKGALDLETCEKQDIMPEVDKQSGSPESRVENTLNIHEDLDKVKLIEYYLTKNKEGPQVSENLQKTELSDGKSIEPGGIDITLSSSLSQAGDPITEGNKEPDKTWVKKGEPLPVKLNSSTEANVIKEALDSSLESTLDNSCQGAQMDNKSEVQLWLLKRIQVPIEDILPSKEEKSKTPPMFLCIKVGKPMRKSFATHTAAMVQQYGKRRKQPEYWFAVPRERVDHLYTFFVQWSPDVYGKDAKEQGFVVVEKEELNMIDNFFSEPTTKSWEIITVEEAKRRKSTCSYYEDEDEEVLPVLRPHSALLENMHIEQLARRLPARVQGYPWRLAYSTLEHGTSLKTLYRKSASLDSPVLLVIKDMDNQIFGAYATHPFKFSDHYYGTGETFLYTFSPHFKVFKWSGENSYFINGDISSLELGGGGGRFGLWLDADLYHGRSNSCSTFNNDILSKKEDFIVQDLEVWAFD
# UniProt P56556, whole entry, looked up: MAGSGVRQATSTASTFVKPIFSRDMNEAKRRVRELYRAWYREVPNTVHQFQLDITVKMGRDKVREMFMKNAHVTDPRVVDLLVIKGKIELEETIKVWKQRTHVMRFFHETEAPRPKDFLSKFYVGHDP
# UniProt P49321, whole entry, looked up: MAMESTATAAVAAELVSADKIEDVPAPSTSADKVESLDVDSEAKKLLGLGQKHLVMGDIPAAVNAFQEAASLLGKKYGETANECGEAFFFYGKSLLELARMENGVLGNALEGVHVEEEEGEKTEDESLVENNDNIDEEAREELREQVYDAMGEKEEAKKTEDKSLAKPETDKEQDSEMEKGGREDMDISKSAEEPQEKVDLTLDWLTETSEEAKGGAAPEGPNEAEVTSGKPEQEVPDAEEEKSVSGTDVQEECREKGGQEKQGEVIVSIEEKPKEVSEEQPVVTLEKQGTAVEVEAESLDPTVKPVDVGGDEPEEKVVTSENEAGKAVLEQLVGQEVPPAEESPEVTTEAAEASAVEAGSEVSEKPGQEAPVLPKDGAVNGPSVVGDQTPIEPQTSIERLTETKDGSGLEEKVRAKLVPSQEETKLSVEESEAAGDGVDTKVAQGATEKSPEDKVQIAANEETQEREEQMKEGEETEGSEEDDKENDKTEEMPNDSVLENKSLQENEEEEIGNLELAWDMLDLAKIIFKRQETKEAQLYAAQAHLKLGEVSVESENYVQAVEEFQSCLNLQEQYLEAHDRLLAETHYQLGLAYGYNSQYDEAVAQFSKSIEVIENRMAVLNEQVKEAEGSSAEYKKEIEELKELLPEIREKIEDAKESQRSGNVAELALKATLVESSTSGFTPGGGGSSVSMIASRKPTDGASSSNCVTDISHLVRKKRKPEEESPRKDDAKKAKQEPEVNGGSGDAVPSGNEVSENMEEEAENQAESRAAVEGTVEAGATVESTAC
# UniProt Q6IA69: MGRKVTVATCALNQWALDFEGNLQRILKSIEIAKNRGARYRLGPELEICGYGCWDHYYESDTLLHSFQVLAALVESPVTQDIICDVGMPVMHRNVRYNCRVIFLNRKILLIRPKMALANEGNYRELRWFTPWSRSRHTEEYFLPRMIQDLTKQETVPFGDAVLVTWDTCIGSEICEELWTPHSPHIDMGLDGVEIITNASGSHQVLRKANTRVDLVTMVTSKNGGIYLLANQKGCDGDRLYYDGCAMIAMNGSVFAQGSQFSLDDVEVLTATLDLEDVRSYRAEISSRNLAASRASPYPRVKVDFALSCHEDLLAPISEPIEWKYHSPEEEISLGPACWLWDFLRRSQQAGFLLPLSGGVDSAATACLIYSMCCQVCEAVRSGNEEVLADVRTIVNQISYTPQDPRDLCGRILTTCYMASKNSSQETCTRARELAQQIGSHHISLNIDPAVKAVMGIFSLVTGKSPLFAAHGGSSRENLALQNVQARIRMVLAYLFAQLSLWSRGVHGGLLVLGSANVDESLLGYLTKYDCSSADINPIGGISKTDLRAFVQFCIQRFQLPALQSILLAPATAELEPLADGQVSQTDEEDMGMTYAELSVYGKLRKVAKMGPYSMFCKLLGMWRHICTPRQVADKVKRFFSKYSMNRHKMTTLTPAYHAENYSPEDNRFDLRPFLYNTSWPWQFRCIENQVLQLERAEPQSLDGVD
# UniProt Q16795, whole entry, looked up: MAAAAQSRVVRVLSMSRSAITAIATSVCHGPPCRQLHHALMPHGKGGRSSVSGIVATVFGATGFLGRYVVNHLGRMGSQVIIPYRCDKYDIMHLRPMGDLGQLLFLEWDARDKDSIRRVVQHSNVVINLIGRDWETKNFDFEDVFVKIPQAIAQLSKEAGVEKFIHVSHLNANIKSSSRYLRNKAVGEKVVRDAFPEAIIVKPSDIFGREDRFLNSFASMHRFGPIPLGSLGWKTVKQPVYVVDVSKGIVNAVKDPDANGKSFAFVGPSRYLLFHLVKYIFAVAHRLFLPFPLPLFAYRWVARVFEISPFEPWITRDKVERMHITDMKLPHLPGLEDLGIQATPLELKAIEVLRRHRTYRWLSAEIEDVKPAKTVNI
# UniProt Q9Y2A7: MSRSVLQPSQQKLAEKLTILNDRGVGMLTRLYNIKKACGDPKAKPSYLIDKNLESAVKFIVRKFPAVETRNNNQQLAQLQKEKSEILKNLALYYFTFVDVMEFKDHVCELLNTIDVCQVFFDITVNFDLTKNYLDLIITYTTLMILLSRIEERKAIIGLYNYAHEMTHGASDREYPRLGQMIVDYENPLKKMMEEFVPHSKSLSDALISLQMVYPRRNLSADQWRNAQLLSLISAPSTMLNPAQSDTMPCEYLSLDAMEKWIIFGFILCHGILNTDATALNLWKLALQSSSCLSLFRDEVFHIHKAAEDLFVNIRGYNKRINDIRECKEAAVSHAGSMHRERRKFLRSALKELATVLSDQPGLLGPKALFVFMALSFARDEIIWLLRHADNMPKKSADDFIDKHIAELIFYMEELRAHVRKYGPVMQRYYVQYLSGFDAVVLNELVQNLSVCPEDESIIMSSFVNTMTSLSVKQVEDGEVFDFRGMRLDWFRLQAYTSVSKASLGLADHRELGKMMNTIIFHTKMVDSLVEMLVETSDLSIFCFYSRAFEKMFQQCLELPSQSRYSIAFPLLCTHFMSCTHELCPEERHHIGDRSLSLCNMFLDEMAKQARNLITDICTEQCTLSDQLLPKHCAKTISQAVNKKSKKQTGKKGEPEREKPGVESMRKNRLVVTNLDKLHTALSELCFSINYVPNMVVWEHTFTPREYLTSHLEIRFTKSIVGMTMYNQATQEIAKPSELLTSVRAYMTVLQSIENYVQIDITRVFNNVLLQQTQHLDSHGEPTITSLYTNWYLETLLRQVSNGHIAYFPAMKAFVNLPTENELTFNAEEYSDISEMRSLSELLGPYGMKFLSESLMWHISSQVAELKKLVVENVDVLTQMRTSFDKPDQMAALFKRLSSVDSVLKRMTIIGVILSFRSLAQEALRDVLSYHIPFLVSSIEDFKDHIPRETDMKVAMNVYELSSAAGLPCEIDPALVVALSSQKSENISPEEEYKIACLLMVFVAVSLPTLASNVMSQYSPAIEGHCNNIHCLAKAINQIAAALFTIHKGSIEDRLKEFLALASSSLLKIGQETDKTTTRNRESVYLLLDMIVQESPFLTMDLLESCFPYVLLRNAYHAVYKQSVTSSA
# UniProt Q15843, whole entry, looked up: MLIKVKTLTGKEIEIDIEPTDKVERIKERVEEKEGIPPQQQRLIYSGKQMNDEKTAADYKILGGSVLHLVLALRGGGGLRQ
# UniProt Q16718, whole entry, looked up: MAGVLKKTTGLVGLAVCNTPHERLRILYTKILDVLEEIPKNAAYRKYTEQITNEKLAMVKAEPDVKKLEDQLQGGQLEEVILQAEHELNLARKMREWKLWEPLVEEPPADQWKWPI
# UniProt Q8N183: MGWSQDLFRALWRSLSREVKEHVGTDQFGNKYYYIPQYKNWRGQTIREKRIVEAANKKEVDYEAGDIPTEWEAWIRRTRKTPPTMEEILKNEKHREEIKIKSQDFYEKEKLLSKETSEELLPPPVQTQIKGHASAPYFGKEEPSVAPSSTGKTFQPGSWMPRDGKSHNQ
# What was measured:
# Assay in all cases: log2 fold change, soluble protein after heating vs DMSO (PISA); higher = thermal stabilisation; K562 cells, 10 uM, 30 min; active = over 0.2 and 3.5 SD of the protein, either way, in both replicates (recomputed)
# [1] = compound: COC1=CC=C(C=C1)CN2C=CC3=C2C=C(C=C3)C(=O)NO
# Outline: (§1)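 Aliquots of K562 cells (2×10^6 cells/mL) treated with 10 μM compound for 30 min were heated for 3 min over 48°C-58°C. After pooling and extraction in PBS with 0.5% NP-40 at 4°C, soluble protein from a 21,000xg, 90 min spin was quantified by TMTpro 16plex LC-MS/MS with channel sums equalised. Thermal stability is expressed against control samples, from duplicates, as a log2 fold change.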
# filanesib = compound: CON(C)C(=O)N1N=C(c2cc(F)ccc2F)S[C@@]1(CCCN)c1ccccc1 [filanesib]
# Outline: as §1
# zotarolimus = compound: CO[C@H]1C[C@@H]2CC[C@@H](C)[C@@](O)(O2)C(=O)C(=O)N2CCCC[C@H]2C(=O)O[C@H]([C@H](C)C[C@@H]2CC[C@H](n3cnnn3)[C@H](OC)C2)CC(=O)[C@H](C)/C=C(\C)[C@@H](O)[C@@H](OC)C(=O)[C@H](C)C[C@H](C)/C=C/C=C/C=C/1C [zotarolimus]
# Outline: as §1
# idasanutlin = compound: COc1cc(C(=O)O)ccc1NC(=O)[C@@H]1N[C@@H](CC(C)(C)C)[C@](C#N)(c2ccc(Cl)cc2F)[C@H]1c1cccc(Cl)c1F [idasanutlin]
# Outline: as §1
# alisertib = compound: COc1cc(Nc2ncc3c(n2)-c2ccc(Cl)cc2C(c2c(F)cccc2OC)=NC3)ccc1C(=O)O [alisertib]
# Outline: as §1
# [2] = compound: COc1cc2nc(-c3cc(F)ccc3O)nc(N[C@@H]3CNC[C@H]3C(C)(C)O)c2cc1OC
# Outline: as §1
# gefitinib = compound: COc1cc2ncnc(Nc3ccc(F)c(Cl)c3)c2cc1OCCCN1CCOCC1 [gefitinib]
# Outline: as §1
# [3] = compound: COc1cccc2cc(-c3nc([C@H]4CC[C@H](C(=O)O)CC4)n4ncnc(N)c34)[nH]c12
# Outline: as §1
# lapatinib = compound: CS(=O)(=O)CCNCc1ccc(-c2ccc3ncnc(Nc4ccc(OCc5cccc(F)c5)c(Cl)c4)c3c2)o1 [lapatinib]
# Outline: as §1
# pictilisib = compound: CS(=O)(=O)N1CCN(Cc2cc3nc(-c4cccc5[nH]ncc45)nc(N4CCOCC4)c3s2)CC1 [pictilisib]
# Outline: as §1
# [4] = compound: CS(=O)(=O)c1ccc(-c2cnc(N)c(C(=O)Nc3ccccc3)n2)cc1
# Outline: as §1
# crizotinib = compound: C[C@@H](Oc1cc(-c2cnn(C3CCNCC3)c2)cnc1N)c1c(Cl)ccc(F)c1Cl [crizotinib]
# Outline: as §1
# [5] = compound: C[C@@H]1COCCN1C2=NC(=NC(=C2)C3(CC3)S(=O)(=O)C)C4=C5C=CNC5=CC=C4
# Outline: as §1
# [6] = compound: C[C@H](C1=CC=C(C=C1)C(=O)NC2=C3C=CNC3=NC=C2)N
# Outline: as §1
# duvelisib = compound: C[C@H](Nc1ncnc2nc[nH]c12)c1cc2cccc(Cl)c2c(=O)n1-c1ccccc1 [duvelisib]
# Outline: as §1
# gandotinib = compound: Cc1cc(Nc2cc(CN3CCOCC3)c3nc(C)c(Cc4ccc(Cl)cc4F)n3n2)n[nH]1 [gandotinib]
# Outline: as §1
# tozasertib = compound: Cc1cc(Nc2cc(N3CCN(C)CC3)nc(Sc3ccc(NC(=O)C4CC4)cc3)n2)n[nH]1 [tozasertib]
# Outline: as §1
# [7] = compound: Cc1cc(SCc2sc(-c3ccc(C(F)(F)F)cc3)nc2C)ccc1OCC(=O)O
# Outline: as §1
# doramapimod = compound: Cc1ccc(-n2nc(C(C)(C)C)cc2NC(=O)Nc2ccc(OCCN3CCOCC3)c3ccccc23)cc1 [doramapimod]
# Outline: as §1
# ispinesib = compound: Cc1ccc(C(=O)N(CCCN)[C@@H](c2nc3cc(Cl)ccc3c(=O)n2Cc2ccccc2)C(C)C)cc1 [ispinesib]
# Outline: as §1
Target,log2 fold change [1],log2 fold change (filanesib),log2 fold change (zotarolimus),log2 fold change (idasanutlin),log2 fold change (alisertib),log2 fold change [2],log2 fold change (gefitinib),log2 fold change [3],log2 fold change (lapatinib),log2 fold change (pictilisib),log2 fold change [4],log2 fold change (crizotinib),log2 fold change [5],log2 fold change [6],log2 fold change (duvelisib),log2 fold change (gandotinib),log2 fold change (tozasertib),log2 fold change [7],log2 fold change (doramapimod),log2 fold change (ispinesib)
NACA (UniProt E9PAV3),inactive: 0.019,inactive: -0.01,inactive: -0.081,inactive: 0.046,inactive: -0.056,inactive: -0.035,inactive: -0.018,inactive: 0.075,inactive: 0.016,inactive: 0.017,inactive: -0.032,inactive: 0.003,inactive: -0.084,inactive: 0.04,inactive: -0.04,inactive: 0.036,inactive: -0.01,inactive: -0.074,inactive: -0.008,inactive: 0.013
NAE1 (UniProt Q13564),inactive: 0.002,inactive: -0.029,inactive: 0.011,inactive: 0.018,inactive: -0.074,inactive: 0.072,inactive: 0.032,inactive: 0.025,inactive: -0.002,inactive: -0.003,inactive: 0.015,inactive: -0.135,inactive: -0.002,inactive: -0.015,inactive: 0.02,inactive: -0.059,inactive: -0.055,inactive: 0.043,inactive: 0.052,inactive: -0.041
NDUFB7 (UniProt P17568),inactive: -0.011,inactive: -0.023,inactive: -0.03,inactive: -0.025,inactive: -0.051,inactive: -0.077,inactive: 0,inactive: 0.002,inactive: -0.013,inactive: -0.066,inactive: 0.004,inactive: 0.001,inactive: 0.03,inactive: -0.094,,inactive: -0.02,,inactive: -0.041,inactive: 0.021,inactive: 0.015
NDUFS8 (UniProt O00217),inactive: -0.07,inactive: -0.122,inactive: -0.003,inactive: -0.147,inactive: -0.15,inactive: -0.069,inactive: -0.028,inactive: 0.081,inactive: 0.01,inactive: 0.018,inactive: 0.021,inactive: -0.182,inactive: 0.143,inactive: -0.027,,inactive: -0.168,,inactive: 0.021,inactive: -0.043,inactive: -0.158
NCOA7 (UniProt Q8NI08),inactive: -0.043,inactive: -0.046,inactive: 0.035,inactive: -0.034,inactive: -0.034,inactive: 0.043,inactive: -0.014,inactive: 0.014,inactive: 0.01,inactive: -0.045,inactive: -0.003,inactive: -0.17,inactive: 0.012,inactive: -0.034,,active: -0.238,,inactive: 0.031,inactive: 0.082,inactive: -0.037
NDUFA6 (UniProt P56556),inactive: 0.097,inactive: -0.035,inactive: 0.05,active: -0.383,inactive: 0.044,inactive: 0.048,inactive: -0.004,inactive: 0.068,inactive: 0.097,inactive: 0.087,inactive: 0.012,inactive: -0.044,inactive: 0.172,inactive: -0.078,,inactive: -0.22,,inactive: 0.098,inactive: -0.004,inactive: 0
NASP (UniProt P49321),inactive: 0.01,inactive: -0.009,inactive: 0.05,inactive: -0.021,inactive: -0.03,inactive: 0.029,inactive: 0.001,inactive: -0.023,inactive: -0.023,inactive: 0.007,inactive: 0.005,inactive: 0.063,inactive: 0.045,inactive: -0.061,,inactive: -0.066,,inactive: 0.013,inactive: -0.053,inactive: 0.06
NADSYN1 (UniProt Q6IA69),inactive: -0.007,inactive: -0.011,inactive: 0.004,inactive: 0.058,inactive: -0.108,inactive: -0.061,inactive: 0.026,inactive: 0.049,inactive: 0.098,inactive: 0.009,inactive: 0.037,inactive: 0.057,inactive: 0.156,inactive: -0.126,inactive: 0.004,inactive: 0.038,inactive: -0.023,inactive: -0.036,inactive: 0.004,inactive: 0.119
NCOR2 (UniProt C9J0Q5),inactive: -0.059,inactive: 0.04,inactive: -0.044,inactive: -0.032,inactive: -0.047,inactive: 0.031,inactive: 0.021,inactive: 0.153,inactive: 0.01,inactive: 0.047,inactive: 0.017,inactive: 0.01,inactive: -0.01,inactive: 0.066,inactive: 0,inactive: -0.102,inactive: -0.042,inactive: 0.015,inactive: 0.056,inactive: 0.111
NCALD (UniProt P61601),inactive: -0.048,inactive: -0.179,inactive: -0.03,inactive: -0.053,inactive: 0.029,inactive: -0.022,inactive: 0.082,inactive: 0.079,inactive: 0.071,inactive: 0.009,inactive: -0.008,inactive: 0.021,inactive: 0.072,inactive: 0,inactive: 0.04,inactive: -0.031,inactive: 0.03,inactive: -0.021,inactive: 0.038,inactive: -0.024
NDUFA9 (UniProt Q16795),inactive: -0.002,inactive: -0.116,inactive: 0.008,active: -0.229,inactive: -0.04,inactive: -0.008,inactive: -0.055,inactive: 0.014,inactive: -0.052,inactive: -0.024,inactive: 0.007,inactive: -0.139,inactive: 0.079,inactive: 0.022,,inactive: -0.115,,inactive: 0.052,inactive: -0.031,inactive: -0.122
NCKAP1 isoform 2 (UniProt Q9Y2A7),inactive: 0.019,inactive: -0.042,inactive: 0.025,inactive: -0.035,inactive: 0.067,inactive: 0.008,inactive: -0.009,inactive: -0.038,inactive: 0.016,inactive: -0.049,inactive: -0.021,inactive: -0.071,inactive: 0,inactive: -0.08,,inactive: -0.093,,inactive: 0.031,inactive: -0.027,inactive: 0.034
NEDD8 (UniProt Q15843),inactive: -0.033,inactive: 0.064,inactive: 0.023,inactive: -0.044,inactive: -0.043,inactive: 0.035,inactive: 0.022,inactive: 0.059,inactive: -0.098,inactive: -0.025,inactive: 0.008,inactive: 0.118,inactive: 0.161,inactive: 0.032,inactive: -0.011,inactive: 0.074,inactive: 0.043,inactive: 0.016,inactive: 0.022,inactive: 0.094
NDUFA5 (UniProt Q16718),inactive: -0.116,inactive: 0.029,inactive: 0.056,inactive: -0.005,inactive: -0.041,inactive: -0.106,inactive: 0.039,inactive: 0.03,inactive: -0.029,inactive: -0.072,inactive: 0.03,inactive: 0.04,inactive: 0.071,inactive: -0.083,inactive: 0.145,inactive: 0.043,inactive: 0.008,inactive: -0.008,inactive: 0.036,inactive: 0.066
NDUFAF2 (UniProt Q8N183),inactive: 0.052,inactive: -0.047,inactive: -0.067,inactive: -0.05,inactive: -0.025,inactive: -0.077,inactive: -0.007,inactive: 0.032,inactive: 0.006,inactive: 0.052,inactive: 0.024,inactive: -0.037,inactive: 0.023,inactive: -0.05,inactive: 0.034,inactive: 0.015,inactive: -0.018,inactive: -0.045,inactive: -0.005,inactive: -0.027

# In a second layout: results already given
Target	log2 fold change [1]	log2 fold change (filanesib)	log2 fold change (zotarolimus)	log2 fold change (idasanutlin)	log2 fold change (alisertib)	log2 fold change [2]	log2 fold change (gefitinib)	log2 fold change [3]	log2 fold change (lapatinib)	log2 fold change (pictilisib)	log2 fold change [4]	log2 fold change (crizotinib)	log2 fold change [5]	log2 fold change [6]	log2 fold change (duvelisib)	log2 fold change (gandotinib)	log2 fold change (tozasertib)	log2 fold change [7]	log2 fold change (doramapimod)	log2 fold change (ispinesib)
NCOR2 (UniProt C9J0Q5)	inactive: -0.059	inactive: 0.04	inactive: -0.044	inactive: -0.032	inactive: -0.047	inactive: 0.031	inactive: 0.021	inactive: 0.153	inactive: 0.01	inactive: 0.047	inactive: 0.017	inactive: 0.01	inactive: -0.01	inactive: 0.066	inactive: 0	inactive: -0.102	inactive: -0.042	inactive: 0.015	inactive: 0.056	inactive: 0.111
NCALD (UniProt P61601)	inactive: -0.048	inactive: -0.179	inactive: -0.03	inactive: -0.053	inactive: 0.029	inactive: -0.022	inactive: 0.082	inactive: 0.079	inactive: 0.071	inactive: 0.009	inactive: -0.008	inactive: 0.021	inactive: 0.072	inactive: 0	inactive: 0.04	inactive: -0.031	inactive: 0.03	inactive: -0.021	inactive: 0.038	inactive: -0.024

# From the supplement of paper PMC10849652
